Some results were stated once for a whole list of compounds, not compound by compound. At least one compound was matched to its structure with a doubt left.
Experiments:
[1] = test system: root gall nematode (Meloidogyne incognita); assay: Method C: Nematode Screen; type: in vivo; details: concentration of 500 ppm or less; 2nd stage larvae exposed 2 days, immobilized vs untreated controls
[2] = test system: tobacco budworm (Heliothis virescens); assay: Method A: Heliothis virescens Screen; type: in vivo; details: concentration of 500 ppm or less; 24-hour-old eggs dipped, effect on eggs and larvae after 6 days at 25° C.

SMILES | control (percent nematicidal contact activity) [1] | control [2]
CC1=NN(c2c(Cl)cc(C(F)(F)F)cc2Cl)C(=O)C12CC=C(c1ccccc1)CS2 (stereo not drawn) [Compound 3, [1-(2,6-dichloro-4-trifluoromethylphenyl)-3-methylpyrazolin-5-one]-4-spiro-2′-(5′-phenyl-2′H-3′,6′-dihydrothiane)] | at least 50% | at least 50%
CC1=NN(c2c(Cl)cc(C(F)(F)F)cc2Cl)C(=O)C12SC1C=CC2C1 (stereo not drawn) [Compound 8, [1-(2,6-dichloro-4-trifluoromethylphenyl)-3-methylpyrazolin-5-one]-4-spiro-3′-(2′-thiabicyclo[2.2.1]hept-5′-ene)] | at least 50% | 
NC1=NN(c2c(Cl)cc(C(F)(F)F)cc2Cl)C(=O)C12SC1C=CC2C1 (stereo not drawn) [Compound 7, [3-amino-1-(2,6-dichloro-4-trifluoromethylphenyl)pyrazolin-5-one]-4-spiro-3′-(2′-thiabicyclo[2.2.1]hept-5′-ene)] | at least 50% | at least 50%
CC1=NN(c2c(Cl)cc(C(F)(F)F)cc2Cl)C(=O)C12CC=C(c1ccccc1)C[S+]2[O-] (stereo not drawn) [Compound 12, [1-(2,6-dichloro-4-trifluoromethylphenyl)-3-methylpyrazolin-5-one]-4-spiro-2′-(5′-phenyl-1′-oxo-2′H-3′,6′-dihydrothiane)] |  | at least 50%
